Test system: protein mix (PKA)
Conditions: constant protein mix concentration titrated with inhibitor in pre-incubation; data not shown

Question: How did the “binding inhibition, change in optical thickness” value turn out when `CN[C@@H]1C[C@H]2O[C@@](C)([C@@H]1OC)n1c3ccccc3c3c4c(c5c6ccccc6n2c5c31)C(=O)NC4` [STP, Staurosporine] was run?
Answer: Its value is “concentration-dependent change in optical thickness”.

From paper PMC12680756, “Reflectometric-based sensor arrays for the screening of kinase-inhibitor interactions and kinetic determination” (Analytical and Bioanalytical Chemistry, 2025)
